Data taken from patent US20090074762A1.
These are yes or no findings as the source states them, for the method shown. Some entries that bind do so weakly or less than the wild type.

T1: mouse TweakR (mouse) (UniProt Q9CR75)
T1 sequence (looked up): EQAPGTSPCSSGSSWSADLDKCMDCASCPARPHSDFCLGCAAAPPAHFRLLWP

T2: human TweakR (human) (UniProt Q9NP84)
T2 sequence: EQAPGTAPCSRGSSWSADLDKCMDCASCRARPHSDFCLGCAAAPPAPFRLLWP

T3: human TweakR (R56P) (human) (UniProt Q9NP84)
T3 sequence: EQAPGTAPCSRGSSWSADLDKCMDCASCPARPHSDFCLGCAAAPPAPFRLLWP


How the values were obtained:
mouse TweakR (mouse) [1] = biological target: T1, mouse TweakR (mouse); assay: binding assay read as OD650, single bar per antibody and target; format and antibody concentration not given
human TweakR (human) = biological target: T2, human TweakR (human); assay: as above
[2] = biological target: T3, human TweakR (R56P) (human); assay: as above
mouse TweakR (mouse) [3] = biological target: T1, mouse TweakR (mouse); assay: binding assay read as OD650; format and antibody concentration not given
[4] = biological target: T3, human TweakR (R56P) (human); assay: as above

Binder | binding (mouse TweakR (mouse) [1]) | binding (human TweakR (human)) | binding [2] | binding (mouse TweakR (mouse) [3]) | binding [4]
murine anti-TweakR antibody ITEM-1 (antibody, V domains shown) VH: EVKLEESGGGLVQPGGSMKLSCVASGFSFSNYWMNWVRQSPEKGLEWVAEIRLKSNNYATHYAESVKGRFTISRHDSKSSVYLQMNNLRAEDTGIYYCTRAYADYFDYWGQGTTLTVSS VL: DIVLTQSPASLVVSLGQRATISCRASQSVSTSTYSYMHWYQQKPGQPPKILIKYASNLESGVPARFSGSGSGTDFTLNIHPVEEEDTATYYCQHSWEIPYTFGGGTKLEIKR | binds | binds | binds |  | 
murine anti-TweakR antibody ITEM-3 (antibody, V domains shown) VH: EVKLEESGGGLVQPGGSMKLSCVVSGLTFSRYWMSWVRQSPEKGLEWVAEIRVKSDNYATTHYAESVKGKFTVSRDDSKSRLYLQMSSLRPEDTGIYYCIGYYADAMDYWGQGTSVTVSS VL: DIVLTQSPASLVVSLGQRATISCRASQSVSTSSYSYMHWYQQKPGQPPKLLIKYASKLDSGVPARFSGSGSGTDFTLNIHPVEEEDTATYYCQHSWEIPWTFGGGTKMEIKR | binds | binds | binds |  | 
murine anti-TweakR antibody 19.2.1 (antibody, mouse IgG2a, V domains shown) VH: EVKLEESGGGLVQPGGSMKLSCVASGFTFSSYWMSWVRQSPEKGLEWVAEIRLKSDNYATHYAESVKGKFTISRDDSKSRLYLQMNSLRAEDTGIYYCTGYYADAMDYWGQGTSVTVSS VL: DIVLTQSPASLAVSLGQRATISCRASQSVSTSSYSYMHWYQQKPGQPPKLLIKYASNLESGVPARFSGSGSGTDFTLNIHPVEEEDTATYYCQHSWEIPYTFGGGTKLEIK |  |  |  | no binding | no binding
